System: human erythrocytes (RBC's)
Test: Hemolysis assay, 50% lysis of RBC's
Assay type: cell-based
Conditions: Table 2
Protocol: The biological activities of these peptides were measured using human erythrocytes and E. coli as models for mammalian and bacterial cells, respectively. Hemolysis was monitored in 10 mM Tris, 150 mM NaCl, pH 7.0, while the bacterial assay was conducted in minimal media M9 (Table 1); both of these solutions are sufficiently transparent to allow CD and ultracentrifugation measurements (supplementary material). Under the assay conditions, the peptides gave CD spectra similar to those in Tris buffer, with the exception of H-(β^3-HLeu-β^3-HLys-β^3-HLeu)n-OH, n=5 and 6.
∇in M9 medium (data from Hamuro et al., ref. 5) # In M9 medium.+Hemolysis experiments were performed by incubating a 0.25% suspension of human RBc's in 10 mM Tris buffer containing […] at pH 7.0 with varying amounts of peptide. The hemolytic dose required to lyse 50% of the RBC's is reported as the HD50.
Hemolysis experiments were carried out by incubating 0.25% suspension of human erythrocytes (RBC's) with peptides of different concentrations in 150 mM sodium choloride, 10 mM Tris buffer, pH 7.0. The sample was prepared by combining 400 μL of the RBC suspension and […] of the peptide solution. After incubated the sample at 37— C. for 1 hour, the sample was centrifuged at 14,000 rpm for 5 min, and the OD414 of the supernatant was measured. Mellitin (50 μM) was used to get 100% hemolysis. […]

| Structure (SMILES) | Selectivity HD50/IC50 |
| --- | --- |
| CC(C)C[C@@H](CC(=O)O)NC(=O)C[C@H](CCCCN)NC(=O)C[C@@H](NC(=O)C[C@H](CC(C)C)NC(=O)C[C@H](CCCCN)NC(=O)C[C@@H](NC(=O)C[C@H](CC(C)C)NC(=O)C[C@H](CCCCN)NC(=O)C[C@@H](N)C(C)C)C(C)C)C(C)C [H-(β^3-HVal-β^3-HLys-β^3-HLeu)3-OH, H-(b^3-HVal-b^3-HLys-b^3-HLeu)3-OH] | 2.1 |
| CC(C)C[C@@H](CC(=O)O)NC(=O)C[C@H](CCCCN)NC(=O)C[C@@H](NC(=O)C[C@H](CC(C)C)NC(=O)C[C@H](CCCCN)NC(=O)C[C@@H](NC(=O)C[C@H](CC(C)C)NC(=O)C[C@H](CCCCN)NC(=O)C[C@@H](NC(=O)C[C@H](CC(C)C)NC(=O)C[C@H](CCCCN)NC(=O)C[C@@H](N)C(C)C)C(C)C)C(C)C)C(C)C [H-(β^3-HVal-β^3-HLys-β^3-HLeu)4-OH, H-(b^3-HVal-b^3-HLys-b^3-HLeu)4-OH] | 2.0 |

— patent publication US6677431B2, “Design, preparation, and properties of antibacterial β-peptides” (The Trustees of the University of Pennsylvania, priority 1999, dated 2004)
